Some of the results follow.
Columns and labels:
Experiment in all cases: log2 fold change, soluble protein after heating vs DMSO (PISA); higher = thermal stabilisation; K562 lysate, 10 uM; active = over 0.2 and 3.5 SD of the protein, either way, in both replicates (recomputed)
vemurafenib = compound: CCCS(=O)(=O)Nc1ccc(F)c(C(=O)c2c[nH]c3ncc(-c4ccc(Cl)cc4)cc23)c1F [vemurafenib]
Outline: (§1)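 Thermal stability, expressed as log-two fold change relative to solvent controls, is given from duplicates. Crude K562 extract in PBS pH 7.4 with 1 mM MgCl2, at 1 mg/mL protein, was treated with 10 μM compound for 30 min and heated in aliquots for 3 min across 48°C-58°C. After pooling, adjustment to 0.5% NP-40 at 4°C and centrifugation at 21,000xg for 90 min, supernatant protein was measured by TMTpro 16plex LC-MS/MS with channel sums equalised.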

Sequences of proteins named here, by UniProt entry; tags and fusion partners are left off. A change or cut given only in a name is not applied to a line headed by its entry.
UniProt Q9NZJ9: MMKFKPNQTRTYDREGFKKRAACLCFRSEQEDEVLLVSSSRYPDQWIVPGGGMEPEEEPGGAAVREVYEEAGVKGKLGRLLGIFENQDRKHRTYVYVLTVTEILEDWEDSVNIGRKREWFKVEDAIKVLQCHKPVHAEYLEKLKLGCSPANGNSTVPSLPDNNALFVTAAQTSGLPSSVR
UniProt Q9H8H0: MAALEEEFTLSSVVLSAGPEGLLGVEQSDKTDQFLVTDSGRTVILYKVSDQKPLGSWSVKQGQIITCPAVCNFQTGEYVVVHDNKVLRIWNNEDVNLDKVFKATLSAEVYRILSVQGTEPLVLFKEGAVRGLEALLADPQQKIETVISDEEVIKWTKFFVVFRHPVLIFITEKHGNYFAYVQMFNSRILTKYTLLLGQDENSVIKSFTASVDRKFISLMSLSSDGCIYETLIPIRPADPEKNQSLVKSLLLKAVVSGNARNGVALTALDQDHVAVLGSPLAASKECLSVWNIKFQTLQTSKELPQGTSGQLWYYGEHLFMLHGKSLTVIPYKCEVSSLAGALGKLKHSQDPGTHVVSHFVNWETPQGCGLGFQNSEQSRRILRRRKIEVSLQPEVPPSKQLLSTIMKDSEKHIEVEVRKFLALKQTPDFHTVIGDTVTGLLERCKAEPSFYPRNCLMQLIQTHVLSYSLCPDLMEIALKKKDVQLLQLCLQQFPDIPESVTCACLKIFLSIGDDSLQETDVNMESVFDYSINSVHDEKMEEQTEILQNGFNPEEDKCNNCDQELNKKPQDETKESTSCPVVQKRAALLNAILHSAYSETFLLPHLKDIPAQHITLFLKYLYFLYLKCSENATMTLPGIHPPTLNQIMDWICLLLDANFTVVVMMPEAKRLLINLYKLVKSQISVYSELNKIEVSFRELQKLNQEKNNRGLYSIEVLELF
UniProt Q9BXD5: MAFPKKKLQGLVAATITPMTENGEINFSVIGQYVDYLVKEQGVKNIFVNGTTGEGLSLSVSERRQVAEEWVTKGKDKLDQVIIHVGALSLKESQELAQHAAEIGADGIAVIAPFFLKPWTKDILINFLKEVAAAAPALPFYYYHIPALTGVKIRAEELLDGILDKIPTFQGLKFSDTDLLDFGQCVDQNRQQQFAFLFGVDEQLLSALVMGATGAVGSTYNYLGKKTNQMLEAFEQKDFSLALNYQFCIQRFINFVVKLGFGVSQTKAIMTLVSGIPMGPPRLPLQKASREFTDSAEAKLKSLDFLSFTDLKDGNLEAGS
UniProt P48645: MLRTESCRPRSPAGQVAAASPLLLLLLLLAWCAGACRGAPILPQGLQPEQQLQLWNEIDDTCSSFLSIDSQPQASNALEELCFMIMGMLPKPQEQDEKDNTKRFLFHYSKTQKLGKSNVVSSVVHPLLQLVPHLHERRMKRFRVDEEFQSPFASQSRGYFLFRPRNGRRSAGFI
UniProt Q5C9Z4: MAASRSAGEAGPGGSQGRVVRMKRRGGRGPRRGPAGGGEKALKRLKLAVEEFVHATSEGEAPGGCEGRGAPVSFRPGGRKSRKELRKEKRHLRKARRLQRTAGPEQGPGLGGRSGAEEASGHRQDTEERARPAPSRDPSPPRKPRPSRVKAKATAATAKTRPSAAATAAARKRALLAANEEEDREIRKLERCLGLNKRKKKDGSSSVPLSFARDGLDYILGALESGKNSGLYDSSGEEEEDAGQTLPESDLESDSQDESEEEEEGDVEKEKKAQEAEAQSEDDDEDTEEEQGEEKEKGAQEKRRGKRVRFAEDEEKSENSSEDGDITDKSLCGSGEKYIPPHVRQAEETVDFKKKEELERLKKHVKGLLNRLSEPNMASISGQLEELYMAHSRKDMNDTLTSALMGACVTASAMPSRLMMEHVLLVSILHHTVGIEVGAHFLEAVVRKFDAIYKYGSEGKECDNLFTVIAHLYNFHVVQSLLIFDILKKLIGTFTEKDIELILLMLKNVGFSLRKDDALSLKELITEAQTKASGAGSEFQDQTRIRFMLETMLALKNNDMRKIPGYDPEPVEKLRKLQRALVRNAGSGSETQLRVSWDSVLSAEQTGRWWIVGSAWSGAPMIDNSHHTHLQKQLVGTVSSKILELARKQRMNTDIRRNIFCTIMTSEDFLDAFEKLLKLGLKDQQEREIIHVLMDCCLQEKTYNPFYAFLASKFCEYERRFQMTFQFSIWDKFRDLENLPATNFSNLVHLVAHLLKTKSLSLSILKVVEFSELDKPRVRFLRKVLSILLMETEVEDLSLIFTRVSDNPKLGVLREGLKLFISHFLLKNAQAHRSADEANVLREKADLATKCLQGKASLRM
UniProt Q9NPE3: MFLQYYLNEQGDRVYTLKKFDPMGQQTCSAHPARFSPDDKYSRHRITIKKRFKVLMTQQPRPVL
UniProt Q96L73: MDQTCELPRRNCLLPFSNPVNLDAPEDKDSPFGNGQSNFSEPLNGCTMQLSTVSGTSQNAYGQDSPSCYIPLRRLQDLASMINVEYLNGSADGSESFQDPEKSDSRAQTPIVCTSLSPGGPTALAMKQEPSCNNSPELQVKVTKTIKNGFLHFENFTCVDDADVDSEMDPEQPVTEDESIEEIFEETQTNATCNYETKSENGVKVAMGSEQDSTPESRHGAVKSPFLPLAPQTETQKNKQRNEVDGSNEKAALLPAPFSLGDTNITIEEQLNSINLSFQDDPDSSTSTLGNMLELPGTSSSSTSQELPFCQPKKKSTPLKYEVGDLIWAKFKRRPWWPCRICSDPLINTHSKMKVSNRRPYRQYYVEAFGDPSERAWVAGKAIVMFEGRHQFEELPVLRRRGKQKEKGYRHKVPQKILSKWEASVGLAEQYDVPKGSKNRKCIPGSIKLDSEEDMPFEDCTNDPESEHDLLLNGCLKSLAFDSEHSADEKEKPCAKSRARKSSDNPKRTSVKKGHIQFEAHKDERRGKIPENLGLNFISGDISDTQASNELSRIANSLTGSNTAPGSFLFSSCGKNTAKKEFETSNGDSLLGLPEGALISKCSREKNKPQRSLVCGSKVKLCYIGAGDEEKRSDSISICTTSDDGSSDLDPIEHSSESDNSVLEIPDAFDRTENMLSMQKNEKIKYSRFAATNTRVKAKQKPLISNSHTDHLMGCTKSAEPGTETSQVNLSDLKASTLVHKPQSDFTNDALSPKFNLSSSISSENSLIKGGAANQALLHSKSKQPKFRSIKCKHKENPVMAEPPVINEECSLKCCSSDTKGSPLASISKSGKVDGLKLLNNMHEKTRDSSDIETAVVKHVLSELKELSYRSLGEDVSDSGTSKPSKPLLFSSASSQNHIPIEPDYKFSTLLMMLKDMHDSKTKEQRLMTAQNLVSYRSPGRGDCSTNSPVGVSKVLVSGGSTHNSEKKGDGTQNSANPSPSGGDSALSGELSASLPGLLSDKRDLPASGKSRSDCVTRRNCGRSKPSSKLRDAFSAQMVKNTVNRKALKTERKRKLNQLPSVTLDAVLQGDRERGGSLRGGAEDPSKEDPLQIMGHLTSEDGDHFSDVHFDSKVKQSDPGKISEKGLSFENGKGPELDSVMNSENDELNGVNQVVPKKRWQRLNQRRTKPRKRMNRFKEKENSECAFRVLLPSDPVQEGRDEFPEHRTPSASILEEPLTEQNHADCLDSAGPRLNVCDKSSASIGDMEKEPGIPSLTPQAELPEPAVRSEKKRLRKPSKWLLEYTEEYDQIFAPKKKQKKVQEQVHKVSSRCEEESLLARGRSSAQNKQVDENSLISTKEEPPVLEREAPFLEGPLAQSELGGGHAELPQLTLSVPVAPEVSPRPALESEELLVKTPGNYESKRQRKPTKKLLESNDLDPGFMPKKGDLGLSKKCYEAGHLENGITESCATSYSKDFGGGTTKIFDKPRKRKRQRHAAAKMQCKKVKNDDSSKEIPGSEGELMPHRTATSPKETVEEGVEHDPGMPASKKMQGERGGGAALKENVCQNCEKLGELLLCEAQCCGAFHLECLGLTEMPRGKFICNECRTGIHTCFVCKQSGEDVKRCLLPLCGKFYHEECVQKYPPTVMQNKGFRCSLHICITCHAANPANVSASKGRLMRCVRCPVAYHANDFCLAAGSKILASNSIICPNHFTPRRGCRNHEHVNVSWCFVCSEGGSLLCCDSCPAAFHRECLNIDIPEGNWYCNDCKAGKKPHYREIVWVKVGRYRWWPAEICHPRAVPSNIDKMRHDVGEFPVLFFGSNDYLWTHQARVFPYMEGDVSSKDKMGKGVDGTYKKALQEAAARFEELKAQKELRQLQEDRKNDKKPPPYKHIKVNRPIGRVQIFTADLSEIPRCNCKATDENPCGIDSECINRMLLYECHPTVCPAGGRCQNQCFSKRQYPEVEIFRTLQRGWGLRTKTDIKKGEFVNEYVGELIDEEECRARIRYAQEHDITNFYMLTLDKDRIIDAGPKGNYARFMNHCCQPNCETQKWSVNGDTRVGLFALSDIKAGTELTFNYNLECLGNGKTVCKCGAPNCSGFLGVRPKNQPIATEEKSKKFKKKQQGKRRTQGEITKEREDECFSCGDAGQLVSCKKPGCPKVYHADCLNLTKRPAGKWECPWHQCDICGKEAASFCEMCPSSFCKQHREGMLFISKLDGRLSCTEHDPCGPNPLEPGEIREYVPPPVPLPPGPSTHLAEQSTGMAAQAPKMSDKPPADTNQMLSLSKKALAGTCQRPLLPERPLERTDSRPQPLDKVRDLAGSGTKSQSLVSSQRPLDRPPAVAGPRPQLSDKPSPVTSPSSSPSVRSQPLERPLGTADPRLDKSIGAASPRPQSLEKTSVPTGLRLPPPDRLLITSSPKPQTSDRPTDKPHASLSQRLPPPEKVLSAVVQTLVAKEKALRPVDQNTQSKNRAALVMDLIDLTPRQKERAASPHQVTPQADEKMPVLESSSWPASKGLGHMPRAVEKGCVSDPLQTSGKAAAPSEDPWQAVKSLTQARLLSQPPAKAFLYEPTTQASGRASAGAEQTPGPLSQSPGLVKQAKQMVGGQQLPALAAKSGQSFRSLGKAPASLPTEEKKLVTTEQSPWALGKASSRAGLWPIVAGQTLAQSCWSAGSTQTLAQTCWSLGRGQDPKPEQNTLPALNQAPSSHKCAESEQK
UniProt P15531, whole entry, looked up: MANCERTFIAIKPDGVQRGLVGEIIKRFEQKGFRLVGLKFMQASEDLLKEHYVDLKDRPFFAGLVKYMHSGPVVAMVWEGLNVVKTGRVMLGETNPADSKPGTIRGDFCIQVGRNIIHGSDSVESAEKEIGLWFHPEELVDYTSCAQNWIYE
UniProt P49116: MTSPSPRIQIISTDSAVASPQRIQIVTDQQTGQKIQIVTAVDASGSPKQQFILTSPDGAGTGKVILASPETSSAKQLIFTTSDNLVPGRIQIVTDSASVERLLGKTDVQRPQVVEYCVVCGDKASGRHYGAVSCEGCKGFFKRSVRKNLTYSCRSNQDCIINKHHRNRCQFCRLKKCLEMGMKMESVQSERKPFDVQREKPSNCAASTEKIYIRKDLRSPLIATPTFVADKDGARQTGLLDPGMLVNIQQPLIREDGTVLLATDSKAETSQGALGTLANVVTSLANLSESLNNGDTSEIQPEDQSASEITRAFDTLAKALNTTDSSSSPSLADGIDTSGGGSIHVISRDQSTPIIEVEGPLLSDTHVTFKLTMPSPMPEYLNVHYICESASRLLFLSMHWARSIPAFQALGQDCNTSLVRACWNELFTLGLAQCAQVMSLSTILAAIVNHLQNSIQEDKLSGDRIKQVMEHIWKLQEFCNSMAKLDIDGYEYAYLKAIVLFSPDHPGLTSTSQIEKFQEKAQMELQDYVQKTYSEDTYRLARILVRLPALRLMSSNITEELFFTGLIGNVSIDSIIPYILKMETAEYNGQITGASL
UniProt P06748, whole entry, looked up: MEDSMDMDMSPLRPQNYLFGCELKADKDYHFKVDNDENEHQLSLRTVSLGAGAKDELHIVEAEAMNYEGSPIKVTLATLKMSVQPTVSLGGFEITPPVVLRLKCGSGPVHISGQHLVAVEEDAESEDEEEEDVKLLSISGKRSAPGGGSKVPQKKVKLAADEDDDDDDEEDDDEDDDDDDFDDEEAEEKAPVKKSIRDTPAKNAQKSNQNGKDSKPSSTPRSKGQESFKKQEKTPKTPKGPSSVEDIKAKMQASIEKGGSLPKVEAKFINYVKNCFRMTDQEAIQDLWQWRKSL

[1] = compound: CCCS(=O)(=O)Nc1ccc(F)c(C(=O)c2c[nH]c3ncc(Cl)cc23)c1F
Outline: as §1

barasertib = compound: CCN(CCCOc1ccc2c(Nc3cc(CC(=O)Nc4cccc(F)c4)[nH]n3)ncnc2c1)CCOP(=O)(O)O [barasertib]
Outline: as §1

[2] = compound: CC[C@@H]1C(=O)N(C)c2cnc(Nc3ccc(C(=O)NC4CCN(C)CC4)cc3OC)nc2N1C1CCCC1
Outline: as §1

volasertib = compound: CC[C@@H]1C(=O)N(C)c2cnc(Nc3ccc(C(=O)N[C@H]4CC[C@H](N5CCN(CC6CC6)CC5)CC4)cc3OC)nc2N1C(C)C [volasertib]
Outline: as §1

[3] = compound: CCn1c(C(=O)N(C2CC2)C2CC2)cc2c3c(ncn3C)c(Nc3cc(C)n(C)n3)nc21
Outline: as §1

[4] = compound: CCn1cc(-c2ccnc3[nH]c(-c4cccc(CN(C)C)c4)cc23)c(-c2ccc(NC(=O)N(C)C)cc2)n1
Outline: as §1

[5] = compound: CN1CCC(CNc2ccc3ncc(-c4cccc(OC(F)(F)F)c4)n3n2)CC1
Outline: as §1

saracatinib = compound: CN1CCN(CCOc2cc(OC3CCOCC3)c3c(Nc4c(Cl)ccc5c4OCO5)ncnc3c2)CC1 [saracatinib]
Outline: as §1

sotrastaurin = compound: CN1CCN(c2nc(C3=C(c4c[nH]c5ccccc45)C(=O)NC3=O)c3ccccc3n2)CC1 [sotrastaurin]
Outline: as §1

alvocidib = compound: CN1CC[C@H](c2c(O)cc(O)c3c(=O)cc(-c4ccccc4Cl)oc23)[C@H](O)C1 [alvocidib]
Outline: as §1

Tubastatin A = compound: CN1CCc2c(c3ccccc3n2Cc2ccc(C(=O)NO)cc2)C1 [Tubastatin A]
Outline: as §1

[6] = compound: CNC(=O)C1=CC=CC=C1NC2=NC(=NC=C2Cl)NC3=C(C=C(C=C3)N4CCOCC4)OC
Outline: as §1

defactinib = compound: CNC(=O)c1ccc(Nc2ncc(C(F)(F)F)c(NCc3nccnc3N(C)S(C)(=O)=O)n2)cc1 [defactinib]
Outline: as §1

[7] = compound: CNc1nc(-c2ccc3c(N)n[nH]c3c2)cc(N2C[C@@H](C(=O)NC3CCCCC3)CC[C@H]2C)n1
Outline: as §1

encorafenib = compound: COC(=O)N[C@@H](C)CNc1nccc(-c2cn(C(C)C)nc2-c2cc(Cl)cc(NS(C)(=O)=O)c2F)n1 [encorafenib]
Outline: as §1

[8] = compound: COC(=O)[C@H](CCSC)NC(=O)C1=C(C=C(C=C1)NC[C@H](CS)N)C2=CC=CC=C2
Outline: as §1

alisertib = compound: COc1cc(Nc2ncc3c(n2)-c2ccc(Cl)cc2C(c2c(F)cccc2OC)=NC3)ccc1C(=O)O [alisertib]
Outline: as §1

[9] = compound: COc1cc2nc(-c3cc(F)ccc3O)nc(N[C@@H]3CNC[C@H]3C(C)(C)O)c2cc1OC
Outline: as §1

gefitinib = compound: COc1cc2ncnc(Nc3ccc(F)c(Cl)c3)c2cc1OCCCN1CCOCC1 [gefitinib]
Outline: as §1

Measured: log2 fold change

NUDT4 isoform 2 (UniProt Q9NZJ9)
inactive: vemurafenib 0.009 | [1] 0.021 | barasertib -0.05 | [2] 0.013 | volasertib 0.005 | [3] -0.018 | [4] -0.068 | [5] 0.058 | saracatinib 0.076 | sotrastaurin 0 | alvocidib -0.001 | Tubastatin A -0.101 | [6] 0.01 | defactinib -0.07 | [7] 0.073 | encorafenib 0.025 | [8] -0.129 | alisertib 0.012 | [9] 0.003 | gefitinib -0.023

NOL11 (UniProt Q9H8H0)
inactive: vemurafenib 0.026 | [1] 0.017 | barasertib -0.01 | [2] 0.033 | volasertib -0.022 | [3] -0.068 | [4] -0.088 | [5] 0.035 | saracatinib -0.02 | sotrastaurin 0.065 | alvocidib 0.027 | Tubastatin A -0.018 | [6] 0.023 | defactinib 0.026 | [7] 0.034 | encorafenib 0.036 | [8] -0.055 | alisertib -0.003 | [9] 0.045 | gefitinib -0.034

NPL (UniProt Q9BXD5)
inactive: vemurafenib 0.121 | [1] 0.08 | barasertib 0.048 | [2] -0.088 | volasertib 0.191 | [4] -0.241 | [5] -0.043 | saracatinib 0.052 | alvocidib 0.018 | [6] -0.033 | defactinib 0.023 | [7] 0.063 | encorafenib 0.032 | [8] 0.111 | alisertib 0.083 | [9] -0.076 | gefitinib -0.08

NMU (UniProt P48645)
inactive: vemurafenib -0.068 | [2] 0.012 | [4] 0.095 | [5] -0.03 | sotrastaurin 0.054 | alvocidib 0.077 | [6] 0.04 | defactinib 0.04 | encorafenib -0.275 | [8] 0.032

NOM1 (UniProt Q5C9Z4)
inactive: vemurafenib 0.033 | [1] -0.022 | [2] -0.052 | volasertib -0.045 | [4] -0.126 | [5] 0.097 | saracatinib 0.115 | sotrastaurin -0.012 | alvocidib -0.023 | defactinib -0.016 | [7] -0.029 | encorafenib -0.261 | [8] 0.224 | alisertib 0.014 | [9] 0.045 | gefitinib 0.025

NOP10 (UniProt Q9NPE3)
inactive: vemurafenib -0.041 | [1] 0.023 | barasertib 0.108 | [2] -0.056 | volasertib 0.007 | [3] 0.049 | [4] -0.047 | [5] 0.099 | saracatinib 0.008 | sotrastaurin 0.004 | alvocidib -0.006 | Tubastatin A 0.029 | [6] 0.001 | defactinib 0.005 | [7] -0.149 | encorafenib 0.021 | [8] -0.011 | alisertib -0.004 | [9] 0.028 | gefitinib -0.07

NSD1 (UniProt Q96L73)
inactive: vemurafenib -0.022 | [1] 0.033 | [2] -0.066 | volasertib -0.049 | [3] 0.019 | [4] -0.012 | [5] 0.005 | saracatinib -0.093 | alvocidib 0.004 | Tubastatin A -0.047 | [6] 0.022 | defactinib 0.019 | [7] 0.025 | encorafenib -0.013 | [8] -0.014 | alisertib 0.06 | [9] -0.003 | gefitinib 0

NME1 isoform 2 (UniProt P15531)
inactive: vemurafenib 0.066 | [1] 0.015 | barasertib -0.007 | [2] -0.024 | volasertib 0.004 | [3] -0.008 | [4] 0.067 | [5] 0.029 | saracatinib -0.025 | sotrastaurin -0.031 | alvocidib 0.057 | Tubastatin A 0.052 | [6] 0.068 | defactinib 0.019 | [7] -0.049 | encorafenib -0.013 | [8] -0.031 | [9] -0.012

Random excerpt: two records from the list.
NOM1 (UniProt Q5C9Z4)
inactive: vemurafenib 0.033 | [1] -0.022 | [2] -0.052 | volasertib -0.045 | [4] -0.126 | [5] 0.097 | saracatinib 0.115 | sotrastaurin -0.012 | alvocidib -0.023 | defactinib -0.016 | [7] -0.029 | encorafenib -0.261 | [8] 0.224 | alisertib 0.014 | [9] 0.045 | gefitinib 0.025

NOP10 (UniProt Q9NPE3)
inactive: vemurafenib -0.041 | [1] 0.023 | barasertib 0.108 | [2] -0.056 | volasertib 0.007 | [3] 0.049 | [4] -0.047 | [5] 0.099 | saracatinib 0.008 | sotrastaurin 0.004 | alvocidib -0.006 | Tubastatin A 0.029 | [6] 0.001 | defactinib 0.005 | [7] -0.149 | encorafenib 0.021 | [8] -0.011 | alisertib -0.004 | [9] 0.028 | gefitinib -0.07

The list continues.

NSA2 (UniProt O95478)
inactive: vemurafenib -0.035 | [1] 0.101 | barasertib -0.093 | [2] 0.067 | volasertib 0.034 | [3] -0.043 | [4] -0.441 | [5] -0.221 | saracatinib -0.084 | alvocidib -0.291 | Tubastatin A -0.181 | [6] -0.017 | defactinib 0.058 | [7] 0.066 | encorafenib -0.184 | [8] -0.086 | alisertib -0.14 | [9] -0.012 | gefitinib 0.056

NR2C2 isoform 2 (UniProt P49116)
inactive: vemurafenib -0.087 | [1] 0.049 | barasertib 0.017 | [2] -0.091 | volasertib -0.001 | [3] 0.003 | [4] 0.075 | [5] -0.074 | saracatinib -0.058 | sotrastaurin 0.002 | alvocidib 0.075 | Tubastatin A -0.045 | [6] -0.03 | defactinib 0.058 | [7] 0.1 | encorafenib -0.002 | [8] -0.022 | [9] -0.002

NPM1 (UniProt P06748)
inactive: vemurafenib 0.004 | [1] -0.019 | barasertib -0.022 | [2] -0.004 | volasertib 0.006 | [3] -0.001 | [4] 0.011 | [5] -0.005 | saracatinib 0.004 | sotrastaurin 0.003 | alvocidib 0.019 | Tubastatin A 0.01 | [6] 0.003 | defactinib 0.001 | [7] 0.033 | encorafenib -0.031 | [8] 0.077 | alisertib 0 | [9] -0.005 | gefitinib 0.019

— the supplement of paper PMC10849652
